# Results of single-concentration screens

The values are deposited in ChEMBL (CHEMBL3988442, “University of Dundee, Small-Polar-MMV Screening Library” (2021)).

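Whole-parasite assay of Trypanosoma brucei over 72 hours; the read-out is not stated. Compounds at 30 µM. Higher reads as stronger inhibition (inferred: compounds with an IC50 in retests scored well above the rest). Values scatter widely below zero; nearly all retest evidence comes from the higher of the two concentrations used. Size under these conditions: about 64,000 compounds, about 940 of them at 50% or above in at least one test.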

Values are the deposited “Percent Effect”, in %. The record does not define 0% and 100%; most values in the screen are far below 50% and negative numbers occur (in some assays of this library far below -100). Compounds were drawn at random from those tested, without regard to their results.

| compound | effect |
|---|---|
| `CCOCC1CN(Cc2cnn(C)c2)Cc2c1cnn2CC.O=C(O)C(F)(F)F` (stereo not shown) | -8.502 |
| `CC(=O)Nc1sc2c(c1C(=O)O)CCc1ccccc1-2` | -46.94 |
| `CS(=O)(=O)c1ccc(CNC(=O)NCC2CCOC2)cc1` (stereo not shown) | -2.056 |
| `[H][C@@]12CCCN1CCCN(c1nc(-c3ccco3)nc3c1CCNCC3)C2` | -10.98 |
| `Cn1cc(CNS(=O)(=O)c2cc(F)ccc2F)cn1` | -42.52 |
| `NS(=O)(=O)CCN(CCc1cccc(F)c1)C1CCCC1` | -30.2 |
| `CC(C)CN1CCCn2nc(CNC(=O)CN3CCOC3=O)cc2C1` | -89.14 |
| `CCOCC1c2c(cnn2CC2CC2)CCN1C(=O)c1ccncn1.O=C(O)C(F)(F)F` (stereo not shown) | -36.62 |
| `Cc1noc(C(C)C)c1C(=O)NCc1cccnc1` | 3.945 |
| `COc1ccc(CNc2cc(-c3nc(C)no3)ccn2)c(OC)c1` | -34.52 |
| `COC(=O)CNC(=O)CCc1cc(Br)cs1` | 33.98 |
| `Cc1ccc(F)c2c1CCCN2Cc1cc(=O)n(C)c(=O)n1C` | 0.8688 |
| `CCn1nnc2c1C(COC)CN(Cc1ccsc1)C2.O=C(O)C(F)(F)F` (stereo not shown) | -32.99 |
| `O=C(c1ccccc1OC1CCCC1)N1CCCC(n2cncn2)C1` (stereo not shown) | 16.8 |
| `COCC(=O)NCc1cc2n(n1)CCCN(Cc1ccccc1SC)C2` | -20.92 |
| `CCc1noc(CN(C)C(=O)C(C)(C)Oc2cccc(Cl)c2)n1` | 5.826 |
| `CCCNCc1cn(C)nc1-c1cccnc1.Cl` | -36.88 |
| `O=C(c1c[nH]cn1)N1CCCn2c(nnc2Cn2cccc2)C1` | -24.02 |
| `FC(F)(F)c1ccc(-n2ccnc2-c2cc3n(n2)CCNC3)cn1` | -10.16 |
| `COc1ccc(C(=O)NCCCNc2ncccn2)cc1F` | -4.318 |
| `O=C(O)C(F)(F)F.[H][C@@]12CN(Cc3cccs3)CCO[C@]1([H])CN(S(=O)(=O)CC)C2` | -26 |
| `CC(c1ccc(-c2cnc(N)nc2)cc1)N1CCOCC1` (stereo not shown) | 23.77 |
| `O=C(O)C(F)(F)F.c1csc(CN2CCc3ncnc(C4CCOC4)c3CC2)c1` (stereo not shown) | -2.082 |
| `CCC(=O)Nc1nnc2n(Cc3cccc(OC)c3)[nH]c(C)c1-2` | 2.295 |
| `O=C(c1ccc[nH]1)N1CCOCC2(C1)CN(c1ccccc1)C(=O)CO2` (stereo not shown) | -7.776 |
| `CCCS(=O)(=O)CCSc1cccc(C#N)c1` | 1.418 |
| `O=C(NCc1ccc(CN2CCCCC2)cc1)Nc1cccnc1` | -54.19 |
| `Cc1ccc(N2CCCC(NCc3ccncc3)C2)nn1` (stereo not shown) | -8.174 |
| `CCOc1ccc(C(=O)CCC(=O)NCc2csc(N)n2)cc1C` | -22.97 |
| `O=C(NCC1CCCN1CCc1ccccc1)NCC1(O)CCC1` (stereo not shown) | -9.388 |
| `COc1ccc(-c2cc(C(=O)Nc3nc[nH]n3)[nH]n2)cc1` | -19.25 |
| `CN1CC(c2ccccc2)C2(CCN(C(=O)c3cccn3C)CC2)C1=O` (stereo not shown) | -23.74 |
| `O=C(N[C@H]1CCCC[C@@H]1O)c1cccc(-c2nc3ccccc3[nH]2)c1` | 14.07 |
| `Cc1cnc(CN(C)C2CCN(Cc3nc4ccccc4o3)C2)o1` (stereo not shown) | -23.53 |
| `Cc1cc(C)n(C2CN(c3nc(N)nc4c3CCCC4)C2)n1` | -44.8 |
| `CCC(CO)N(Cc1cccnc1)C(=O)c1ccc(C(F)(F)F)nc1O` (stereo not shown) | -22.05 |
| `CC(=O)N1CCc2c(nc(-c3cccnc3)nc2N(C)CC(O)CO)C1` (stereo not shown) | -37.77 |
| `COc1ccc(CN(C)CC(=O)Nc2ccc3[nH]c(=O)[nH]c3c2)cc1F` | 0.4462 |
| `c1cnc(C2CCCN2c2cnccn2)cn1` (stereo not shown) | -12.45 |
| `CN(CC(=O)N1CCOCC(CO)C1)Cc1ccccn1` (stereo not shown) | -18.29 |
| `Cc1ccc(C)c(CN2CCCn3nc(CNS(C)(=O)=O)cc3C2)c1` | -30.42 |
| `CCOc1ncccc1NC(=O)N1CCCCCC1` | 13.12 |
| `COC(=O)CCC(=O)N1CCC2(CN(Cc3cccc(Cl)c3)C2)C1` | -15.81 |
| `CCc1nnc(C2Cc3ccccc3CN2Cc2cc(C)on2)o1` (stereo not shown) | -2.714 |
| `[H][C@]12CCCN(S(=O)(=O)c3ccc(OC)cc3)[C@@]1([H])CN(C(=O)C1CC1)C2` | -10.43 |
| `NC(=O)C1CN(C(=O)Nc2ccc(SC(F)(F)F)cc2)CCO1` (stereo not shown) | -13.05 |
| `Cc1nn(C)cc1C(=O)N1CCCn2nc(CN3CC[C@H](F)C3)cc2C1` | -56.49 |
| `OC1CCN([C@@H]2CCN(c3nc(-c4ccccc4)no3)C[C@H]2O)CC1` | 9.57 |
| `CCNC(=O)[C@@H]1C[C@@H](N)CN1Cc1ccc(Sc2ccc(C)cc2)o1` | 100.1 |
| `COc1cccnc1NC(=O)COc1ccc(F)cc1F` | -2.608 |
| `CN1CCNC(=O)C12CCN(Cc1ccco1)CC2.O=C(O)C(F)(F)F.O=C(O)C(F)(F)F` | -18.52 |
| `CCCc1nc2c(c(C)c(C)n2Cc2ccccn2)c(N)c1CC` | 99.32 |
| `CC(=O)c1ccc(N2CCN(C(=O)c3cc(C(C)C)nn3C)CC2)cc1` | 11.82 |
| `COc1cc2nc(C)n(CC(=O)NCC(C)C)c(=O)c2cc1OC` | -40.6 |
| `Cc1nc(C)n(CC2CCCN2Cc2ncc(C(C)(C)C)o2)n1` (stereo not shown) | 101.7 |
| `CCN(CC)C(=O)c1ccc(CNc2ncc(C#N)cc2Cl)cc1` | -7.831 |
| `Nc1nccnc1C1CN(C(=O)COc2cccnc2)CCO1` (stereo not shown) | -20.06 |
| `Cn1ncc2c(=O)[nH]c(CN3CCc4sccc4C3)nc21` | -32.88 |
| `CC(C)N1CCC(CNC(=O)COc2ccc(F)cc2F)C1` (stereo not shown) | -2.048 |
| `CS(=O)(=O)N1CCCC(c2nc(-c3ccccc3)c[nH]2)C1` (stereo not shown) | -30.22 |
| `COc1ccc(S(=O)(=O)NC(=O)c2c(C)noc2C(C)C)cc1OC` | 21.75 |
| `CN(C)C(=O)N1CCCn2nc(CNC(=O)CCc3ccsc3)cc2C1` | -48.69 |
| `CCC(CO)n1cnc2scc(C)c2c1=O` (stereo not shown) | -25.75 |
| `[H][C@]12CCN(C(=O)c3cc(CN(CC)CC)c(CC)o3)C[C@]([H])(CC1)N2` | -11.36 |
| `O=C(c1cccc(Cn2ccnc2)c1)N1CCCC(n2ccnc2)C1` (stereo not shown) | 16.45 |
| `C1CC(NCc2nc(C3CC3)no2)CN(Cc2noc(C3CC3)n2)C1` (stereo not shown) | -32.34 |
| `O=c1cc2c(nn1CN1CCOCC1)CCC2` | 41.33 |
| `CCOCC1CN(c2ccc(C)nn2)Cc2cnn(CC)c21.O=C(O)C(F)(F)F.O=C(O)C(F)(F)F` (stereo not shown) | -37.28 |
| `Cc1nn(C)c2c(=O)n(CC(=O)NC3CCCCC3)ccc12` | -2.535 |
| `CCc1nccn1CC(=O)Nc1cccc(C(=O)N(C)C)c1` | -25.09 |
| `Cc1noc(C)c1-c1cccc(C2CN(S(=O)(=O)N(C)C)CCO2)n1` (stereo not shown) | -1.014 |
| `O=C(C1=CCCC1)N1CCC[C@]2(C[C@@H](Oc3ncccc3F)CO2)C1.O=C(O)C(F)(F)F` | 28.5 |
| `CCCc1cncnc1N1CCC(NCCc2ccc(O)cc2)CC1` | -6.649 |
| `Cc1noc(C(C)C)c1C(=O)NCC(c1cccs1)N(C)C` (stereo not shown) | -10.21 |
| `CC(C)(C)C(=O)NCCc1cc(N2CCOCC2)nc(NC2CC2)n1` | 1.281 |
| `Cc1cc(NC(=O)C2CCCN(C(=O)NCC(C)C)C2)ccn1` (stereo not shown) | -19.46 |
| `CC(=O)N(C)CC(=O)NCC1(c2cccc(C)c2)CCCC1` | -43.3 |

For reference, 6 entries once more:

compound,effect
CC(c1ccc(-c2cnc(N)nc2)cc1)N1CCOCC1 (stereo not shown),23.77
NC(=O)C1CN(C(=O)Nc2ccc(SC(F)(F)F)cc2)CCO1 (stereo not shown),-13.05
NS(=O)(=O)CCN(CCc1cccc(F)c1)C1CCCC1,-30.2
COc1cccnc1NC(=O)COc1ccc(F)cc1F,-2.608
OC1CCN([C@@H]2CCN(c3nc(-c4ccccc4)no3)C[C@H]2O)CC1,9.57
CCc1nnc(C2Cc3ccccc3CN2Cc2cc(C)on2)o1 (stereo not shown),-2.714